The whole screen tested about 580,000 compounds, of which about 6,100 (1.1%) were called active. Inconclusive results, whose numbers are uncertain, are shown with a selection of clear calls. Calls come from the whole dose curve; as a rule, active = well fitted inhibition curve with a large enough effect; inconclusive = small, poorly fitted or top-dose-only effect, or another doubt; inactive = no such curve, though single readings can be large or run the other way. A potency beside an inconclusive call is a rough fit, not a confirmed value.
molecular target: Polyunsaturated fatty acid lipoxygenase ALOX12 (Homo sapiens) (UniProt P18054); experiment: Primary qHTS assay for inhibitors of human arachidonate 12S-lipoxygenase (ALOX12): Round 2; conditions: purified 12hLO, xylenol orange hydroperoxide absorbance; series mostly up to 108 µM
Procedure, shortened: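 Hydroperoxide product was detected by ferrous iron/xylenol orange as the 573 to 405 nm absorbance ratio. Arachidonic acid at 40 uM (final) was turned over for 30 min at room temperature by 150 nM human 12hLO, pH 7.0 Hepes buffer, after 15 min compound preincubation.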
Potency is the fitted concentration of half-maximal effect.

Sequences of proteins named here, by UniProt entry; tags and fusion partners are left off. A change or cut given only in a name is not applied to a line headed by its entry.
UniProt P18054: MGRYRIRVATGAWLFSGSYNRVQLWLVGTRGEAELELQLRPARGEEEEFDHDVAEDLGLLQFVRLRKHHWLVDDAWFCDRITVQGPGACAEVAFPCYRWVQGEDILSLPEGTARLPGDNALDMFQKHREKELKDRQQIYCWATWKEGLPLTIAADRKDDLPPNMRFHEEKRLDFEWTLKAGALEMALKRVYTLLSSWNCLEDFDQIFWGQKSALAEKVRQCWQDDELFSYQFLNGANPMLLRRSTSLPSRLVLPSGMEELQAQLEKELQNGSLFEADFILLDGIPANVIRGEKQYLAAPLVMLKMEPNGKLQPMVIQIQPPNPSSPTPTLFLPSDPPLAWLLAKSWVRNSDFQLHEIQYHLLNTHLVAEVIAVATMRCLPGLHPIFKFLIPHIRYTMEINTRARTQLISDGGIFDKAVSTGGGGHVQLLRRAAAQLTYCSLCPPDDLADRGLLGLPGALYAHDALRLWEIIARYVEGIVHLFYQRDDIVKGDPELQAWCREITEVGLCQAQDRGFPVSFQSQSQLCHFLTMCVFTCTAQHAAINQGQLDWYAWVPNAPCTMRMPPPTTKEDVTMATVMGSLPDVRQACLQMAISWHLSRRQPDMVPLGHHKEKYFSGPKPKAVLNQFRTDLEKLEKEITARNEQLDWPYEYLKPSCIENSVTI

SMILES	Potency
CC12CCC(C(=NO)C1=NO)C2(C)C (centres undefined)	inconclusive: 3.55 µM [inhibitor, full curve, poor fit]
CN(C)CCNc1ncnc2c1sc1nc(-c3ccccc3)c3c(c12)CCCC3	inconclusive: 89.1 µM [inhibitor, partial curve, poor fit]
CC1=C/C(=N\Nc2nc3ccccc3[nH]2)CC(C)(C)C1	inconclusive: 79.4 µM [inhibitor, partial curve, poor fit]
COCC(=O)Nc1cc(C)cn(Cc2ccccc2Cl)c1=O	inconclusive: 56.2 µM [inhibitor, partial curve, poor fit]
COc1ccc(N=Cc2cc(Cl)ccc2O)cc1Cl	inactive
COc1ccc2c(c1)c(C(C(=O)O)N1CCN(Cc3ccccc3)CC1)cn2CCC(=O)O (centres undefined)	inconclusive: 0.398 µM [inhibitor, full curve, poor fit]
C[C@@H]1CCC(=O)N(C[C@@H](C)CSc2ccc(Br)cc2)CC1	inconclusive: 100 µM [inhibitor, partial curve, poor fit]
CCOc1ccc(C(O)(CCC(C)C)C(CN2CCOCC2)c2ccccc2)cc1 (centres undefined)	inconclusive: 0.501 µM [inhibitor, single point]
CC(C)NC(=O)Nc1ccc2c(c1)C(=O)N([C@H](C)CO)C[C@H](C)[C@@H](CN(C)S(=O)(=O)c1ccccc1)OCCCC[C@@H](C)O2	inconclusive: 112 µM [inhibitor, single point]
Cc1cc(C)cc(NC(=O)CCS(=O)(=O)c2ccc3c(c2)oc(=O)n3C)c1	inactive
CC(C)c1ccc(NC(=S)NCCc2c[nH]c3ccccc23)cc1	active: 35.5 µM
CSc1nc(NCCCN(C)C)c2c3c(sc2n1)CN(C)CC3	inconclusive: 35.5 µM [inhibitor, partial curve, poor fit]
O=C1N[C@H](Cc2ccccc2)COC(=O)[C@@H](Cc2ccc(F)cc2)C/C=C\C[C@H]1CC(=O)N(CCO)Cc1ccccc1	inconclusive: 100 µM [inhibitor, single point]
O=C(c1ccccc1F)N1CCC2(CC1)COc1ccccc1CN2	inactive
CC(=O)C(Sc1nc(NC(C)(C)C)nc(N(C)C)n1)C(C)=O	inconclusive: 7.94 µM [inhibitor, full curve, poor fit]
Cc1ccc(Cl)cc1NC(=O)N1CCc2cc(S(=O)(=O)N3CCC(C)CC3)ccc21	inactive
COc1ccc(-c2coc3cc(OCC(=O)O)ccc3c2=O)cc1OC	inconclusive: 79.4 µM [inhibitor, single point]
N#C/C(=C\c1ccc(-c2cccc(C(=O)O)c2)o1)C(=O)N1CCOCC1	inconclusive: 31.6 µM [inhibitor, partial curve, poor fit]
COc1cc(C(=O)NCC(c2ccccc2)N(C)C)ccc1OCc1c(C)noc1C (centres undefined)	inactive
CCOc1ccc(C(=O)Nc2ccc3nc(SCC(=O)N(C)c4ccccc4)sc3c2)cc1	inactive
Cc1cccc(OCC2(CNCC(C)C)C[C@@H](O)[C@@H](O)C2)n1 (some centres undefined)	inconclusive: 25.1 µM [inhibitor, full curve]
COc1ccc(NC(=S)N/N=C/c2cccn2Cc2ccc(F)cc2Cl)cc1	inconclusive: 25.1 µM [inhibitor, partial curve, poor fit]
CC(C)c1ccccc1OCC(=O)NCC(c1cccs1)N1CCOCC1 (centres undefined)	inactive

SMILES	Potency
COc1ccc(C2(c3ccc(OC)cc3)NC(=O)N(CC(=O)Nc3ccc(C(N)=O)cc3)C2=O)cc1	inconclusive: 126 µM [inhibitor, single point]
Cc1c(CN(C)C(=O)Cn2nc(C(F)(F)F)c(Cl)c2C)cnn1C	inactive
COc1ccc(Nc2nc(N)c(C(=O)c3ccc(OC)c(OC)c3OC)s2)cc1	inconclusive: 50.1 µM [inhibitor, partial curve, poor fit]
COc1ccc(CN2CCN(Cc3c[nH]c4ccccc34)CC2)cc1OC	active: 1.12 µM
CCOC(=O)c1c(-c2cccs2)csc1NC(=O)CC(C)C	inactive
Cc1cc2c(c(=O)n(-c3ccc(F)cc3)c(=O)n2CC(=O)Nc2ccccc2Cl)n1C	inconclusive: 89.1 µM [inhibitor, single point]
CSc1ccc(/C=N/N(C)S(=O)(=O)c2ccc(C)cc2)cc1	inactive
COCC(=O)NC[C@H]1O[C@@H](CO)[C@@H](O)[C@H]1N1CCN(c2cccc(C(F)(F)F)c2)CC1	inactive
COc1ccc(-c2cc(C[C@@H]3CC[C@H](O)[C@@H](CNC(=O)Nc4ccccc4OC)O3)no2)cc1	inconclusive: 79.4 µM [inhibitor, partial curve, poor fit]
Cc1nnc(SCC(=O)Nc2cccc(C(F)(F)F)c2)n1Cc1ccco1	inconclusive: 44.7 µM [inhibitor, single point]
COc1ccc(CN2C(=O)C(C)=C(C)C2OC)cc1 (centres undefined)	inconclusive: 50.1 µM [inhibitor, partial curve, poor fit]
CC(=O)N1c2ccc(S(=O)(=O)NCC3CCC(C(=O)Nc4ccc(F)cc4)CC3)cc2CC1C (centres undefined)	inconclusive: 112 µM [inhibitor, partial curve, poor fit]
CC1CC(C)(C)NC(=S)N1CCC(=O)Nc1ccc2c(c1)OCCO2 (centres undefined)	inconclusive: 17.8 µM [inhibitor, full curve]
COc1ccc(OC)c(S(=O)(=O)ON2C(=O)c3ccccc3C2=O)c1	inactive
CN(C)c1ccc(C(=O)Nc2ccccc2-c2ccccc2)cc1	inactive
CC(NC(=O)NCC(=O)NCC(F)(F)F)c1cccc(C(F)(F)F)c1 (centres undefined)	inactive
Cc1ccccc1CS(=O)(=O)c1snnc1C	inconclusive: 50.1 µM [inhibitor, full curve, poor fit]
CCOC(CNC(=O)c1ccc2c(c1)ncn2-c1ccc(OCc2ccccc2)cc1)OCC	inactive
C=CCNc1nc(NCCCN2CCCC2=O)c2sc(-c3ccccc3)cc2n1	inconclusive: 126 µM [inhibitor, single point]
CN1C[C@H](NCc2nccn2C)CCC[C@@H](C(=O)N(C)Cc2cccnc2)CC1=O	inactive
Cc1ccc(Cn2cccc(NS(C)(=O)=O)c2=O)cc1	active: 7.08 µM
Cn1cc(C(=O)NCCCN2CCCCCC2=O)c2ccccc21	inactive
Cc1ccc(NC(=O)C(c2ccccc2)n2cnc3c2c(=O)n(C)c(=O)n3C)cc1 (centres undefined)	inactive

3 compounds picked at random from those above, as already listed:
SMILES	Potency
Cc1cc2c(c(=O)n(-c3ccc(F)cc3)c(=O)n2CC(=O)Nc2ccccc2Cl)n1C	inconclusive: 89.1 µM [inhibitor, single point]
Cc1ccc(NC(=O)C(c2ccccc2)n2cnc3c2c(=O)n(C)c(=O)n3C)cc1 (centres undefined)	inactive
COc1ccc(CN2C(=O)C(C)=C(C)C2OC)cc1 (centres undefined)	inconclusive: 50.1 µM [inhibitor, partial curve, poor fit]

Further compounds follow.

SMILES	Potency
CCC(C)NCCOc1cc(C)cc(C)c1C (centres undefined)	inconclusive: 3.16 µM [inhibitor, full curve, poor fit]
O=C(COC(=O)c1ccccn1)NCCCc1ccccc1	inconclusive: 35.5 µM [inhibitor, single point]
O=C(/C=C/c1ccc(Cl)c([N+](=O)[O-])c1)Nc1ccc(NC(=O)c2ccco2)cc1	inconclusive: 56.2 µM [inhibitor, partial curve, poor fit]
CS(=O)(=O)Oc1ccc2cc(-c3ccccc3)c(=O)oc2c1	inactive
COc1cc(/C=N/N2C(=O)C3C4C=CC(CC4)C3C2=O)ccc1O (centres undefined)	inconclusive: 141 µM [inhibitor, partial curve, poor fit]
CC(=O)Nc1ccc(OC/C=C/c2ccccc2)cc1	inactive
COCC1CCCN(c2nc(CN3CCN(C(=O)c4ccco4)CC3)nc3ccccc23)C1 (centres undefined)	inconclusive: 44.7 µM [inhibitor, single point]
Cc1ccc(NC(=O)CN(C)C(=O)CSc2ccc3c(c2)OCCO3)cc1	inconclusive: 39.8 µM [inhibitor, partial curve, poor fit]
O=C(/C=C/Nc1ccc2ccccc2c1)C(F)(F)F	inconclusive: 141 µM [inhibitor, single point]
O=C(CC1C(=O)NCCN1Cc1ccc(F)c(F)c1)NC1CCC1 (centres undefined)	inactive
O=C(Nc1ncccn1)c1ccc([N+](=O)[O-])cc1[N+](=O)[O-]	inconclusive: 89.1 µM [inhibitor, partial curve, poor fit]
S=C(NN=C1CCCCC1)NC1CCCCC1	inactive
CC(C)c1ccc(NC(=O)C(NS(=O)(=O)c2ccc3c(c2)CCC(=O)N3)c2ccccc2)cc1 (centres undefined)	inconclusive: 89.1 µM [inhibitor, partial curve, poor fit]
CCOC(=O)c1c(C)oc2c1c(C(c1ccccc1)N1CCOCC1)c(O)c1ccccc12 (centres undefined)	inactive
Cc1ccc(-c2nnc3ccc(NCCc4ccccc4)nn23)nc1	inconclusive: 31.6 µM [inhibitor, full curve, poor fit]
COc1ccc(S(=O)(=O)N2CCC(C(=O)NCc3ccncc3)CC2)cc1C	inactive
O=C(CCC(=O)c1ccc(F)cc1)NN1C(=O)NC2(CCCCC2)C1=O	inconclusive: 44.7 µM [inhibitor, partial curve, poor fit]
Cc1cc(C)cc(NC(=O)c2cc(-c3ccc[nH]3)n[nH]2)c1	inconclusive: 20 µM [inhibitor, full curve]
O=[N+]([O-])c1ccc2c(c1)C(=NO)c1cc(F)ccc1-2	inactive
COc1cc(Br)c(OC)c(C(=O)O)c1	inconclusive: 89.1 µM [inhibitor, single point]
COc1cc(OC)cc(-c2cc3nc(C)c(CCC(=O)Nc4ccc(F)c(Cl)c4)c(C)n3n2)c1	inactive
O=C(NCC(c1cccs1)N1CCCCCC1)c1cc(=O)c2cc(Cl)ccc2o1 (centres undefined)	inactive
Cc1nc2ccc([N+](=O)[O-])cc2c(=O)n1Cc1cccc(F)c1	inconclusive: 0.355 µM [inhibitor, full curve, poor fit]

Source: PubChem BioAssay AID1671190 (National Center for Advancing Translational Sciences (NCATS), 2021)
